Assay results from PubChem BioAssay AID588497 (NMMLSC, 2011).
The whole screen tested about 360,000 compounds, of which about 780 (0.22%) were called active. The shares of active, inactive and inconclusive entries below differ from those in the screen. Rule as the data show it: active = inhibition above about 35% (passing the limit was not always enough); inconclusive = no clear call, values can overlap the other calls.

Tested on: Botulinum neurotoxin type F light chain protease (Clostridium botulinum)
Assay: BoNT/F light chain protease inhibitors, primary screen, biochemical, flow cytometry, MLPCN library (AID 588497); also: plate controls were buffer without enzyme for full effect and enzyme alone for no effect
Conditions: Multiplex microsphere protease cleavage assay, at 10 µM, stronger effect = higher value

SMILES	inhibition
Cn1c(=O)cc(OCCCC(=O)Nc2ccc3c(c2)OCCO3)c2ccccc21	inactive: 2.3%
c1ccc(Oc2ccc(-c3ccn[nH]3)cc2)cc1	inconclusive: 95.4%
OC(c1ccccc1)C(Nc1ccccn1)c1ccccc1 (stereo unspecified)	inactive: 4%
CC[N+](C)(CC)CCCCOc1ccc2c(c1)C(=O)c1cc(OCCCC[N+](C)(CC)CC)ccc1-2	inconclusive: -8.5%
COCCN1C(=O)N(c2ccc(OC)cc2)C(=O)C1CC(=O)Nc1cccc(F)c1 (stereo unspecified)	inconclusive: -17.2%
O=[N+]([O-])c1ccc(N/N=C/c2cccnc2)cc1	inconclusive: 4%
O=C(CN1CCN(Cc2ccccc2)CC1)Nc1cccc(Cl)c1	inconclusive: -16.7%
Cc1ccccc1Nc1nc(N)nc(CCl)n1	inconclusive: 7.3%
CCCCCOC(=O)CSc1n[nH]c(=O)[nH]c1=O	inactive: 3.9%
COc1ccc(C2C(C#N)=C(N)Oc3cc(O)ccc32)cc1 (stereo unspecified)	inconclusive: 0.2%
COc1ccc(CC(=O)NCc2csc(-c3cccs3)n2)cc1OC	inconclusive: 15.3%
Oc1[nH]c2ccccc2c1/C=N/c1nccs1	inactive: -16.5%
Cc1ccc2c(c1)C(=C(C#N)C#N)C(=O)N2CCN1CCCCC1	inconclusive: -113%
COC(=O)C(N)Cc1ccc(OC)c([N+](=O)[O-])c1 (stereo unspecified)	inconclusive: 48.1%
N#Cc1ccc(S(=O)(=O)NC2CCN(Cc3ccccc3)CC2)cc1	inconclusive: -16.7%
Cc1nn(Cc2c(F)c(F)c(F)c(F)c2F)c(C)c1NC(=O)c1nn(C)cc1[N+](=O)[O-]	inactive: 1%
COc1ccc(-c2nnnn2C(C)C)cc1	inconclusive: -11.1%
CN(Cc1ccc(Cl)c(Cl)c1)C(c1cc2ccccc2o1)c1nnnn1C(C)(C)C (stereo unspecified)	inactive: -5.3%
C=CCOc1c(CNc2ccc(S(N)(=O)=O)cc2)cccc1OC	inconclusive: -3.1%
COc1ccc(C(CNC(=O)c2cccc(S(=O)(=O)Nc3cccc(C)c3)c2)N2CCOCC2)cc1 (stereo unspecified)	inconclusive: -14.6%
O=C(NCCc1ccccc1)C1c2ccccc2C(=O)N1C1CC1 (stereo unspecified)	inconclusive: 9.6%
COc1ccc(CS(=O)(=O)CC(C)(O)c2ccccc2Cl)cc1 (stereo unspecified)	inconclusive: 11.1%
O=C(Nc1cccnc1N1CCOCC1)c1cccs1	inconclusive: 78.2%

Part of the list above, as a markdown table.

| SMILES | inhibition |
| --- | --- |
| CC[N+](C)(CC)CCCCOc1ccc2c(c1)C(=O)c1cc(OCCCC[N+](C)(CC)CC)ccc1-2 | inconclusive: -8.5% |
| COCCN1C(=O)N(c2ccc(OC)cc2)C(=O)C1CC(=O)Nc1cccc(F)c1 (stereo unspecified) | inconclusive: -17.2% |

(cont.)

SMILES	inhibition
O=C(Nc1ccc2c(c1)OCO2)C1CC(c2cccc(Br)c2)=NO1 (stereo unspecified)	inconclusive: -3%
O=C(Nc1ccc(Br)cc1)c1cnc[nH]1	inconclusive: 0.1%
O=[N+]([O-])c1cc(Br)c2nsnc2c1N1CCOCC1	inconclusive: 24.1%
COc1cc(/C=C/[N+](=O)[O-])ccc1OC(=O)/C=C/c1ccc(F)cc1	inconclusive: -25.3%
CCc1nc2ccc(C(=O)Nc3cc(-c4ccccc4)ccc3OC)cn2c1N(CCN(C)C)CC1CC1	inactive: -3.7%
O=[N+]([O-])c1ccc(CNc2ccc(Cl)cc2)s1	inconclusive: -49.5%
COc1ccc(C(=O)NCCSc2ccccc2C)cc1	inconclusive: 9.8%
Cc1noc(C)c1CSCC(=O)Oc1ccc(N(C)S(=O)(=O)c2ccc(Cl)cc2)cc1	inactive: -7.2%
Cc1ccc(C(=O)NC(=S)NCC2CCCO2)cc1Br (stereo unspecified)	inactive: -0.9%
CC1CCCN(S(=O)(=O)c2ccc(NC(=O)c3cccc(-n4cnnn4)c3)cc2)C1 (stereo unspecified)	inactive: -0.3%
C[C@H](CO)N1C[C@H](C)[C@@H](CN(C)C(=O)Nc2ccc(C(F)(F)F)cc2)Oc2ccc(NS(=O)(=O)c3cccs3)cc2C1=O	inactive: -9.6%
O=C(CSc1nnc(Cc2cc(=O)[nH]c(=O)[nH]2)n1-c1ccc(Cl)cc1)NCC1CCCO1 (stereo unspecified)	inconclusive: 41.4%
CCn1c(NC(C)=O)c(-c2ccccc2Cl)c(=O)c2ccccc21	inactive: 9.8%
Cc1ccccc1NC(=O)CN1CCOCC1	inconclusive: -37.7%
COc1ccccc1CCNC(=O)c1ccc(NC(=O)CC2SC(N3CCCC3)=NC2=O)cc1 (stereo unspecified)	inconclusive: 1.4%
O=C1/C(=C/c2cccc(Cl)c2)SC(=S)N1CCC(=O)N1CCCCC1CCO (stereo unspecified)	inactive: 2.8%
FC(F)(F)c1cccc(-c2nc3nc(Cl)c(Cl)nc3[nH]2)c1	inactive: 11.7%
CC(=O)Nc1ccc(O)cc1[N+](=O)[O-]	inconclusive: 8.2%
NNC(=O)c1ccc(Cn2cccn2)o1	inconclusive: -14.7%
NC(=O)c1ccc(NC(=O)CN2CCN(c3ccccc3)CC2)cc1	inconclusive: 15.4%
Cc1cc(NC(=O)Cc2ccccc2[N+](=O)[O-])no1	inconclusive: -45.3%
O=C(COC(=O)/C=C/c1ccccc1)NCC1CCCO1 (stereo unspecified)	inactive: -1.5%
Cc1noc(C)c1S(=O)(=O)Nc1ccc2c(c1)C(=O)N([C@H](C)CO)C[C@H](C)[C@@H](CN(C)S(=O)(=O)c1ccc(F)cc1)O2	inactive: -1.9%
